1 compound from paper PMC7717712, “The effects of cardiac drugs on human erythrocyte carbonic anhydrase I and II isozymes” (Journal of Enzyme Inhibition and Medicinal Chemistry, 2020) can be followed below.

Sequences of proteins named here, by UniProt entry; tags and fusion partners are left off. A change or cut given only in a name is not applied to a line headed by its entry.
UniProt P00915: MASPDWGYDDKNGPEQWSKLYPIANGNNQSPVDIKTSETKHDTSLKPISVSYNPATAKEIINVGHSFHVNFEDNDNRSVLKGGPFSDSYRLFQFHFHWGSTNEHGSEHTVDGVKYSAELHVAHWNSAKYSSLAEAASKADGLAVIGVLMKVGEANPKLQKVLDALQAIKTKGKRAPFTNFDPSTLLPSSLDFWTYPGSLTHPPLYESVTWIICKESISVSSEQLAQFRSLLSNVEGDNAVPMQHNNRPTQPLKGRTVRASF

Common to all, as to type: biochemical
Assay [1] deals with T1, human carbonic anhydrase II (hCA II) (Homo sapiens, UniProt P00918).
T1 construct: from tissue
In words: Esterase activity assay (4-nitrophenyl-acetate), hCA II. The settings on record: esterase method, 348 nm, 25 °C. The protocol:
(§1) Blood samples (25 ml) from healthy human volunteers were collected. They were centrifuged at 1000g for 20 min at 4 °C, and the supernatant was removed. The packed erythrocytes were washed three times with 0.9% NaCl and then were hemolyzed in cold water. The pH of the hemolysate was adjusted to 8.5 with the solid Tris base. The 25-ml hemolysate was applied to an affinity column containing y Sepharose 4B-ethylene diamine-4-isothiocyanato-benzenesulfonamide[14].
(§2) The inhibitory effects of the drugs on enzyme activities were tested under in vitro conditions.

The target of assay [2] is T2, human carbonic anhydrase I (hCA I) (Homo sapiens, UniProt P00915).
T2 construct: from tissue
In words: CO2 hydratase activity assay (Maren method), hCA I. The settings on record: enzyme purified from human erythrocytes. The protocol: as §1, with “diamine-4-isothiocyanato-benzenesulfonamide[14]. CA isozymes were then eluted with 0.1 M NaCl/25 mM Na2HPO4 (pH 6.3) and 0.1 M CH3COONa/0.5 M NaClO4 (pH 5.6), which recovered hCA I and II, respectively.” for “diamine-4-isothiocyanato-benzenesulfonamide[14].”
(§3) CA activity was measured by the Maren method based on the determination of the time required for the pH to decrease from 10.0 to 7.4 due to CO2 hydration. The assay solution was 0.5 M Na2CO3/0.1 M NaHCO3 (pH 10.0), and phenol red was added as the pH indicator. Carbon dioxide-hydratase activity was calculated in enzyme units (EU) with the following equation: t0 – tc/tc, where t0 and tc are the times for the pH change of the nonenzymatic and the enzymatic reactions, respectively.
(§4) The drugs were triturated in a porcelain mortar pestle. Stock solutions of both drugs were prepared in dimethyl sulfoxide (DMSO). […] The duration (in seconds) of the colour change from red to yellow in solution was measured in a 10-ml glass tube with a diameter of 1 cm. […]

For assay [3], the target named is T2, human carbonic anhydrase I (hCA I). In words: Esterase activity assay (4-nitrophenyl-acetate), hCA I. Conditions: esterase method, 348 nm, 25 °C. The protocol:
as §1, §2

Assay [4] has as its target T1, human carbonic anhydrase II (hCA II). In words: CO2 hydratase activity assay (Maren method), hCA II. Conditions: enzyme purified from human erythrocytes. The protocol: as §1, with “diamine-4-isothiocyanato-benzenesulfonamide[14]. CA isozymes were then eluted with 0.1 M NaCl/25 mM Na2HPO4 (pH 6.3) and 0.1 M CH3COONa/0.5 M NaClO4 (pH 5.6), which recovered hCA I and II, respectively.” for “diamine-4-isothiocyanato-benzenesulfonamide[14].”
as §3, §4

SMILES strings stand for the structures.

For `COC(=O)C1=C(C)NC(C)=C(C(=O)OC)C1c1ccccc1[N+](=O)[O-]` [Nifedipine], the IC50 in assay [1] came out at 50.6 µM; in assay [2] it was 77.9 µM; in assay [3] it was 42.2 µM; in assay [4], 103 µM.
